For the assay, the target named is heterogeneous nuclear ribonucleoprotein K (hnRNPK) (human) (UniProt P61978). As to the kind of experiment: co-IP; IP with antibodies against hnRNPK or IgG, IP lysis buffer with protease and phosphatase inhibitors, protein A/G magnetic beads; Western blot for β-catenin and hnRNPK; cells with overexpressed or knocked-down lncRNA LYPLAL1-DT and controls.

Results are given in words; binding and its absence hold for the method and conditions named. In cells and extracts the contact can be indirect. Some binding calls cover weakened binding; strength is not graded here.

As for β-catenin (from UniProt P35222 1-781), the binding result is “binds”.

(Values after PMC10726293.)
